At least one compound was matched to its structure with a doubt left.
System: CDR1 mRNA
Assay type: cell-based, human
Conditions: Lycorine 5 μM, others 1 μM, 24 h, vs DMSO
Method: Expression levels of CDR1 mRNA change independently of miR-671-5p or CDR1as in primary HCFs upon treatment with Bufalin, Gitoxigenin, Lycorine, Anisomycin and Geldanamycin. HCFs were incubated for 24 h with Bufalin (1 μM), Gitoxigenin (1 μM,) Lycorine (5 μM), Anisomycin (1 μM) and Geldanamycin (1 μM) and impact on CDR1 mRNA level (normalized to GAPDH) by the respective compound was validated via qRT-PCR (see FIG. 23).

COC1=C2C[C@@H](C)C[C@H](OC)[C@H](O)[C@@H](C)/C=C(\C)[C@H](OC(N)=O)[C@@H](OC)/C=C\C=C(/C)C(=O)NC(=CC1=O)C2=O [Geldanamycin]
expression levels of CDR1 mRNA (normalized to GAPDH): decrease
